These are yes or no findings as the source states them, for the method shown. In cells and extracts the contact can be indirect. Some binding calls cover weakened binding; strength is not graded here. For some assays here: Sequences can lack the tags named with a protein.
What was measured:
[1] = target: T1, GST-Brl1^1-200 (S. cerevisiae) (UniProt P38770); assay: pull-down; GST-Brl1^1-200 or GST-nSec1 bound to glutathione beads, incubated with lysate of E. coli expressing 6His-Nic96; immunoblot with GST and 6His antibodies; only the target purified
T1 sequence: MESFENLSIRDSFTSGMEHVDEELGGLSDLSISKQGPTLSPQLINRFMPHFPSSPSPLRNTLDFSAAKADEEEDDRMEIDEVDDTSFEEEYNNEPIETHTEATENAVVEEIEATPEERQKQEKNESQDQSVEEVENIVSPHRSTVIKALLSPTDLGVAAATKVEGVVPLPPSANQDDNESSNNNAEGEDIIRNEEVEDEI

Amino acid sequences for entries named in this document (tags omitted).
UniProt P61765: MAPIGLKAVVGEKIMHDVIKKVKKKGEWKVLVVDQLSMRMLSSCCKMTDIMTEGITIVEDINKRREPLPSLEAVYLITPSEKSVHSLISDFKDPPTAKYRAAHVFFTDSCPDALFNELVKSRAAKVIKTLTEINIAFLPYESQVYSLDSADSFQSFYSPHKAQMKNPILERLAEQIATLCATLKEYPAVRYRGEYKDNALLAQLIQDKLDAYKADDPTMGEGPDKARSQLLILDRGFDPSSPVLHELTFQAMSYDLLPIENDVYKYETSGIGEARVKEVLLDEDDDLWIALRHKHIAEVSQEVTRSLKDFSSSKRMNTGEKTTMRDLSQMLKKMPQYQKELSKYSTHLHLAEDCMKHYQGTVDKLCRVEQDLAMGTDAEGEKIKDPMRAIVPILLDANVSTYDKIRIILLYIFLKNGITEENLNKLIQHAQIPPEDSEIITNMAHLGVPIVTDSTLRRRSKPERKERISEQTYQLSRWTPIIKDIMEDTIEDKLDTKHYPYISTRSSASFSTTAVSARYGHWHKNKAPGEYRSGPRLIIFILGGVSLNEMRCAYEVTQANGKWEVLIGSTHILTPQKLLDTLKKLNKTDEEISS
UniProt P34077: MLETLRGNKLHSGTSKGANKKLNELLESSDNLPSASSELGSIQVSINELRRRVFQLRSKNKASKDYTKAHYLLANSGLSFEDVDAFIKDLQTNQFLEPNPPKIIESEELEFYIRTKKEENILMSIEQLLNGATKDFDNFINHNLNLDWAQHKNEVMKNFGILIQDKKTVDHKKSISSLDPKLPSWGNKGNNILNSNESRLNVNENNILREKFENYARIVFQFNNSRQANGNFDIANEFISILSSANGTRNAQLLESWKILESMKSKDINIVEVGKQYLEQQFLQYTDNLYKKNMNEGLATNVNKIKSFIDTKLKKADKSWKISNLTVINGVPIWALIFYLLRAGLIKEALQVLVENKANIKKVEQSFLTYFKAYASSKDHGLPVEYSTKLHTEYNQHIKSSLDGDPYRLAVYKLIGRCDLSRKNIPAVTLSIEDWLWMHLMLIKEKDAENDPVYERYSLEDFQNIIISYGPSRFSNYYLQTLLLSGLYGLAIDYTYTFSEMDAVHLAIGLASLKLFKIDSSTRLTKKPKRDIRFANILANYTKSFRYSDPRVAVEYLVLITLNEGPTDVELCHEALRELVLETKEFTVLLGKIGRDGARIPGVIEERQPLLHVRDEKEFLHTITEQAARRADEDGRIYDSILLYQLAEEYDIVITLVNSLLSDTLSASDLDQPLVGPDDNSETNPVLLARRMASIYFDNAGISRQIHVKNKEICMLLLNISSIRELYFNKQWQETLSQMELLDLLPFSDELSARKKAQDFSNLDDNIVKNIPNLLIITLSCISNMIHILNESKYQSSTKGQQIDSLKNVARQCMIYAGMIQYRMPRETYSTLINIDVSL

GST-nSec1 = GST-nSec1 (UniProt P61765); assay: as above

With 6His-Nic96 (from UniProt P34077 1-839) the binding [1] was “binds” and the binding (GST-nSec1) was “no binding”.

Source: PMC13043894
